Results are given in words; binding and its absence hold for the method and conditions named. Binding seen in cells or lysates may run through a third protein. Some entries that bind do so weakly or less than the wild type. For some of these results: Where a sequence is shown, tags or fusion partners need not be part of it.
Columns and labels:
[1] = biological target: T1, HOOK3 (endogenous) (human (endogenous in HeLa)) (UniProt Q86VS8); experiment: proximity ligation; Duolink PLA kit on fixed, permeabilized HeLa cells; non-treated or 100 ng/mL nocodazole for 16 hr; pHisH3 staining marks mitotic cells
T1 sequence: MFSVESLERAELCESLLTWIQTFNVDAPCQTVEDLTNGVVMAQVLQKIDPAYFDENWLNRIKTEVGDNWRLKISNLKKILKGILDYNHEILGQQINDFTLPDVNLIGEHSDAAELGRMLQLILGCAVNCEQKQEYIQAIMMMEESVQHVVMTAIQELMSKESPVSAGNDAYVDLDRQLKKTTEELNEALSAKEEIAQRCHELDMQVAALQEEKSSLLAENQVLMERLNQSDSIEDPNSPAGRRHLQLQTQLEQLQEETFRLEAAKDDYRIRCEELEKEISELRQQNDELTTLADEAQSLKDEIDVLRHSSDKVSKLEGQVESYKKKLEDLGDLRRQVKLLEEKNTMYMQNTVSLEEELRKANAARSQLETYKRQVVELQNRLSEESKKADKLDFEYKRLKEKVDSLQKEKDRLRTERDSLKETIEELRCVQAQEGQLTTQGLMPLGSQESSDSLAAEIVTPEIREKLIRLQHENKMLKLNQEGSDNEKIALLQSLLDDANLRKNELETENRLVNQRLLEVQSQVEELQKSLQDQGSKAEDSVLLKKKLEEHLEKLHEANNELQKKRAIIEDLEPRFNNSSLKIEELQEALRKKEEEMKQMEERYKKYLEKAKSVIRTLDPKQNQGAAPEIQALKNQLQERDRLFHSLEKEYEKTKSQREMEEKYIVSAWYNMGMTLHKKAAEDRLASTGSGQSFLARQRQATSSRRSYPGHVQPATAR

[2] = biological target: T2, GFP-HOOK3 2SA (S238,707A) (human) (UniProt Q86VS8); experiment: co-IP; HeLa extracts in Buffer H (sonicated, 15,000 x g); 2 hr at 4°C with A/G-agarose beads pre-linked with antibody; washed with coIP-washing buffer; Western blot; cells left non-treated, treated with 100 ng/mL nocodazole for 16 hr, or released from a thymidine block
T2 sequence: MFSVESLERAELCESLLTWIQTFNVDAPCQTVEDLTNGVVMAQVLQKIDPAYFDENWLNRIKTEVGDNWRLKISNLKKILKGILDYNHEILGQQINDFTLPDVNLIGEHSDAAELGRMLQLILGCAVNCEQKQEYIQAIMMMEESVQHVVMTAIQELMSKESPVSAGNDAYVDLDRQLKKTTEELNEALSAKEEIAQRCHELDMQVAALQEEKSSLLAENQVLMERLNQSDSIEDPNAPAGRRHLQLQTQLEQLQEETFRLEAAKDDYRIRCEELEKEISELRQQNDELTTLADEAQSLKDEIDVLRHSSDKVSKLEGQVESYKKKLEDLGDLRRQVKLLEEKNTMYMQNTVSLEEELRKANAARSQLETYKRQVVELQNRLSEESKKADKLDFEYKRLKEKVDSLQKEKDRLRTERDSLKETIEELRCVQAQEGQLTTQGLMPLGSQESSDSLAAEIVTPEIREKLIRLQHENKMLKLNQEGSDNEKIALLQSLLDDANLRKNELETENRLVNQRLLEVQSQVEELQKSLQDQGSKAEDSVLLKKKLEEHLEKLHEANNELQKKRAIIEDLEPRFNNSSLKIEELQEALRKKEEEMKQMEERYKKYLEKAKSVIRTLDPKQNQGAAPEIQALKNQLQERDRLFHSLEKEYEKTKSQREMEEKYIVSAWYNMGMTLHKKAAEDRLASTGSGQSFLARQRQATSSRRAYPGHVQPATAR

[3] = biological target: T3, GFP-HOOK3 S707E (human) (UniProt Q86VS8); experiment: as above
T3 sequence: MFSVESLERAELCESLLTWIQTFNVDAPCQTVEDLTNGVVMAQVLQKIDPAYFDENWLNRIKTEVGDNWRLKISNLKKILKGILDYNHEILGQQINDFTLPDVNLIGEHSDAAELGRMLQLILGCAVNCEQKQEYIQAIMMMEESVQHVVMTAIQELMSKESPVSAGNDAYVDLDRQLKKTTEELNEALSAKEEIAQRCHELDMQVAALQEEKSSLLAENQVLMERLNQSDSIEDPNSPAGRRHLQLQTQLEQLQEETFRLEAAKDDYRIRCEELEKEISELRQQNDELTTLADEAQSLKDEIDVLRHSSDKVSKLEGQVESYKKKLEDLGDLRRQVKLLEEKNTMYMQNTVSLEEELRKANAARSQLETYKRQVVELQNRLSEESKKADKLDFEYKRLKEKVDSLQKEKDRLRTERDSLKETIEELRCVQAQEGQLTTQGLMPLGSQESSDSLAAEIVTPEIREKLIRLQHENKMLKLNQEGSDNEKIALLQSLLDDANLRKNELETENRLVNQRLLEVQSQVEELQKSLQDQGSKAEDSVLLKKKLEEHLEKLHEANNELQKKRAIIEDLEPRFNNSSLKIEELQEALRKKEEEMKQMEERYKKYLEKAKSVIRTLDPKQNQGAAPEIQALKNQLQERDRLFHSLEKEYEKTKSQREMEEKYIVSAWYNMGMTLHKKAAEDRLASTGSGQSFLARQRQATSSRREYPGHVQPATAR

[4] = biological target: T4, GFP-WT-HOOK3 (human) (UniProt Q86VS8); experiment: as above
T4 sequence: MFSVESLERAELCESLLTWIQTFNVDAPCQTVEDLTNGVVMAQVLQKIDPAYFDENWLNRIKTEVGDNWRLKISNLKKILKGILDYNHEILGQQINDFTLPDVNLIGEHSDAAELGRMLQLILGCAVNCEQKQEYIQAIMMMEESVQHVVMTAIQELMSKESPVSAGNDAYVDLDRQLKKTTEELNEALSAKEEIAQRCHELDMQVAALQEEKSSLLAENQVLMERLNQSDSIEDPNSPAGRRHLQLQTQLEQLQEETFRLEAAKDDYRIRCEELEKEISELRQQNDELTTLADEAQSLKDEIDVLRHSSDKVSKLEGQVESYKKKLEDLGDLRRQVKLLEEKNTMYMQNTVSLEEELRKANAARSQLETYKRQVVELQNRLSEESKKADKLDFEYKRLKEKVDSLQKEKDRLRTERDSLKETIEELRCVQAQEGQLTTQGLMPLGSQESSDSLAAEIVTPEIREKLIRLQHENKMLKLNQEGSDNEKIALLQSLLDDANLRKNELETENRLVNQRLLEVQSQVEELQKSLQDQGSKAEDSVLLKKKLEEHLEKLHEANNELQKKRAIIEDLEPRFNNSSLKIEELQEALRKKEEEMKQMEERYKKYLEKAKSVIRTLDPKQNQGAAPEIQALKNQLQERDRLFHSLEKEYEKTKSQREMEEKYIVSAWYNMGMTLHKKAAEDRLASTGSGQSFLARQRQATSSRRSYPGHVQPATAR

Measured: binding

B1: AuroraA (endogenous) (enzyme, UniProt O14965 1-403)
chain: MDRSKENCISGPVKATAPVGGPKRVLVTQQFPCQNPLPVNSGQAQRVLCPSNSSQRIPLQAQKLVSSHKPVQNQKQKQLQATSVPHPVSRPLNNTQKSKQPLPSAPENNPEEELASKQKNEESKKRQWALEDFEIGRPLGKGKFGNVYLAREKQSKFILALKVLFKAQLEKAGVEHQLRREVEIQSHLRHPNILRLYGYFHDATRVYLILEYAPLGTVYRELQKLSKFDEQRTATYITELANALSYCHSKRVIHRDIKPENLLLGSAGELKIADFGWSVHAPSSRRTTLCGTLDYLPPEMIEGRMHDEKVDLWSLGVLCYEFLVGKPPFEANTYQETYKRISRVEFTFPDFVTEGARDLISRLLKHNPSQRPMLREVLEHPWITANSSKPSNCQNKESASKQS
binds: all assays above

From publication PMC8215223
